{"sequences": {"note": "Sequences of proteins named here, by UniProt entry; tags and fusion partners are left off. A change or cut given only in a name is not applied to a line headed by its entry.", "UniProt Q99417": "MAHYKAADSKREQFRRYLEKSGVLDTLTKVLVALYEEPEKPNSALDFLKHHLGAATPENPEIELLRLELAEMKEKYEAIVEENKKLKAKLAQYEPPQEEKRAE", "UniProt P11586, whole entry": "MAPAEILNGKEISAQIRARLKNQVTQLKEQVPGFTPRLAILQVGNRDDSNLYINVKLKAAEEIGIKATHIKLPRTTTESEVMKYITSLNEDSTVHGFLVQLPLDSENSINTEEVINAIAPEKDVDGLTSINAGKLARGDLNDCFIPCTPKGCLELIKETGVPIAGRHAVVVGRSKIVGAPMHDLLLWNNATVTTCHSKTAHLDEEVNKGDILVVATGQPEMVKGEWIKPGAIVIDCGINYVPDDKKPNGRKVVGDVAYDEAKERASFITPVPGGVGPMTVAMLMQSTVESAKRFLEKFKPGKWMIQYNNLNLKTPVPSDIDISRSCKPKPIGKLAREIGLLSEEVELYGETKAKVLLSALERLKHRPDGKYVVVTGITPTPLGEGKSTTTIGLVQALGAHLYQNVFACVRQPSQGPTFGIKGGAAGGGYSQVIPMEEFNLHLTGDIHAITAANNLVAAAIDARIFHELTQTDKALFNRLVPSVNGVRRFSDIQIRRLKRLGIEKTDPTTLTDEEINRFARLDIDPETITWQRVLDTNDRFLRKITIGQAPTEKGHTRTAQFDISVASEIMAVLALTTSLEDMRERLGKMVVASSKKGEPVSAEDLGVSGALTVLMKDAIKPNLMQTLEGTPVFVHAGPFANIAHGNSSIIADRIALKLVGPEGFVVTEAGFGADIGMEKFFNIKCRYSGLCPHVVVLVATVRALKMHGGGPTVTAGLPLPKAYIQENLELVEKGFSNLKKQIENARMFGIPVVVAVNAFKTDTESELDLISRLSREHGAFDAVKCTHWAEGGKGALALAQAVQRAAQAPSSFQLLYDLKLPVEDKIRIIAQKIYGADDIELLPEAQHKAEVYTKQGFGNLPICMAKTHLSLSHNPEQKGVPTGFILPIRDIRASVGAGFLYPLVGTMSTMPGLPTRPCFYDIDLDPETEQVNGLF", "UniProt O75380, whole entry": "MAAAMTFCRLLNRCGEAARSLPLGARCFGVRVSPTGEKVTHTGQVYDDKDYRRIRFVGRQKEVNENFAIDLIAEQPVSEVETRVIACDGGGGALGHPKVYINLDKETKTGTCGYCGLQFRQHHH", "UniProt P52848": "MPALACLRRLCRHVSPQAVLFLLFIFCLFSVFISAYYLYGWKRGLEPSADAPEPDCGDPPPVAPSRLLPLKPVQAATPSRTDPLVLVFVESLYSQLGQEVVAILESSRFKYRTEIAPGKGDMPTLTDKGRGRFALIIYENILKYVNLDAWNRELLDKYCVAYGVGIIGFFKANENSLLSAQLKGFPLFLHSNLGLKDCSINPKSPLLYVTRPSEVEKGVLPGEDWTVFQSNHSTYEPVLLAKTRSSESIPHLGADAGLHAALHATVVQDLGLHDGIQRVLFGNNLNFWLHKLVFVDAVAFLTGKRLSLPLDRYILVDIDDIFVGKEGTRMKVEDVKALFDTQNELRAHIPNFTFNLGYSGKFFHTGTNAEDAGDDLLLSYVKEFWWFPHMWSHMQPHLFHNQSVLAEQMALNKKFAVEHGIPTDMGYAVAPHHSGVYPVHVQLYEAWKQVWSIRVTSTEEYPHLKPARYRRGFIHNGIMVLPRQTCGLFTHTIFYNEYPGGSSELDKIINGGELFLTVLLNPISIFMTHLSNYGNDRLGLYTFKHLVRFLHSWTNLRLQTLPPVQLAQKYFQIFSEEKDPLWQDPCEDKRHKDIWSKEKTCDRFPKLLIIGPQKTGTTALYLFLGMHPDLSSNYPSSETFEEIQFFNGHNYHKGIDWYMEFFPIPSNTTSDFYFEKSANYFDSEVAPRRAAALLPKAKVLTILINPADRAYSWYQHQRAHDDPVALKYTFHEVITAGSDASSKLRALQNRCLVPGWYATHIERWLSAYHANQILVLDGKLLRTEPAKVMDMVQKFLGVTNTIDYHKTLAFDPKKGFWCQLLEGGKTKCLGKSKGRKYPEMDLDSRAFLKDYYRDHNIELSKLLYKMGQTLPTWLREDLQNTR", "UniProt Q9UMY1": "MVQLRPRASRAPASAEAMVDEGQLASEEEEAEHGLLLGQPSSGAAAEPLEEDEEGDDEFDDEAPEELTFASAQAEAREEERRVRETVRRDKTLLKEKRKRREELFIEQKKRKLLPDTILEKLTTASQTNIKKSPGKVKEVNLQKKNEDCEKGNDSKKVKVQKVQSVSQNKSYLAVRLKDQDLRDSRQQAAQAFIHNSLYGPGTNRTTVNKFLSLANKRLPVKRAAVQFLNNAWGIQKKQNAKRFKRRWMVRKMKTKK", "UniProt Q9Y3C1": "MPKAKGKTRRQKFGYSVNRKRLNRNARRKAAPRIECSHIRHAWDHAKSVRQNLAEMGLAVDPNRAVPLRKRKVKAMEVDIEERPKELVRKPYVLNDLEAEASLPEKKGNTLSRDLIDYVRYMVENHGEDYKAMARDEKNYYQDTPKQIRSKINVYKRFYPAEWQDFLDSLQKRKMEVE", "UniProt O95299, whole entry": "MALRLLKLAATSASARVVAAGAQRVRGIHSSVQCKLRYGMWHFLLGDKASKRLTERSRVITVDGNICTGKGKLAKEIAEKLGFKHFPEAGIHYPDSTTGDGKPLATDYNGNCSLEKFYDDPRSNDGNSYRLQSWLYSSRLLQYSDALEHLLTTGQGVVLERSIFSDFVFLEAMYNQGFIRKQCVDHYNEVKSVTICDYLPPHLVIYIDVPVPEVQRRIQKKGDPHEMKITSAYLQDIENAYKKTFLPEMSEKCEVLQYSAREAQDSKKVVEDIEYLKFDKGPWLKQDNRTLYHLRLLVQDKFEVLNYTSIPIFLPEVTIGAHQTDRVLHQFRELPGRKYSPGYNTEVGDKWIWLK", "UniProt Q9BQG0": "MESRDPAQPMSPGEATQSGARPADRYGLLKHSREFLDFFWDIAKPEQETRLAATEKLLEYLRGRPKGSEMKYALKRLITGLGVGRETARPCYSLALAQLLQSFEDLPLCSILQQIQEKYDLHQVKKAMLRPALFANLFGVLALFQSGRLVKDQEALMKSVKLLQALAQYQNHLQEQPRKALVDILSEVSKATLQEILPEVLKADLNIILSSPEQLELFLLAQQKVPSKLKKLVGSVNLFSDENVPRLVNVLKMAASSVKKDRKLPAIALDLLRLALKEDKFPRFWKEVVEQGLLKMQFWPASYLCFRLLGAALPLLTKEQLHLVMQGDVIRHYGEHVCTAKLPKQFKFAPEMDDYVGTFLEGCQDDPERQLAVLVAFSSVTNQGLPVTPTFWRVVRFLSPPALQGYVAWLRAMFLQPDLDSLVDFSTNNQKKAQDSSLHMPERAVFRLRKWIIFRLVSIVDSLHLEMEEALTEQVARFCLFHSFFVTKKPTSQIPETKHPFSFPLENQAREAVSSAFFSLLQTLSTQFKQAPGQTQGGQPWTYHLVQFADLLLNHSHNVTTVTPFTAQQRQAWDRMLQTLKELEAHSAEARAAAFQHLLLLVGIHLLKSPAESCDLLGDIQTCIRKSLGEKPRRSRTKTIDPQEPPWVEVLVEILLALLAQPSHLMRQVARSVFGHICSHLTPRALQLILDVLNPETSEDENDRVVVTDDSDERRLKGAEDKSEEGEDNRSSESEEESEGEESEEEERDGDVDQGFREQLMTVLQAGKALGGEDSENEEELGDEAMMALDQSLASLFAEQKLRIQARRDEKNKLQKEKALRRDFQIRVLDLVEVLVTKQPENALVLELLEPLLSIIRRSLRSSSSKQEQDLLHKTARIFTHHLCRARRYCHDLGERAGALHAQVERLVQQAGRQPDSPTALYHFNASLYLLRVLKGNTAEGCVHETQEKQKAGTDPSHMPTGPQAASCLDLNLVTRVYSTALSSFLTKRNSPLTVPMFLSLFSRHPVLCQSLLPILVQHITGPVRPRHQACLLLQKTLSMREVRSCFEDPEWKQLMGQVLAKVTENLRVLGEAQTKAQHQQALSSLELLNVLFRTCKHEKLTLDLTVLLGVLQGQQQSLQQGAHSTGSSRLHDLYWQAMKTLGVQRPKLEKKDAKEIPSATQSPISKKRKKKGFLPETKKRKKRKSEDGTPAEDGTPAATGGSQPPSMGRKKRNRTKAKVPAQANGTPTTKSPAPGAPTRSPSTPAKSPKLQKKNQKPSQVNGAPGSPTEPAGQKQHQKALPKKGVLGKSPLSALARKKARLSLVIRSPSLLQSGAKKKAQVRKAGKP", "UniProt Q15021, whole entry": "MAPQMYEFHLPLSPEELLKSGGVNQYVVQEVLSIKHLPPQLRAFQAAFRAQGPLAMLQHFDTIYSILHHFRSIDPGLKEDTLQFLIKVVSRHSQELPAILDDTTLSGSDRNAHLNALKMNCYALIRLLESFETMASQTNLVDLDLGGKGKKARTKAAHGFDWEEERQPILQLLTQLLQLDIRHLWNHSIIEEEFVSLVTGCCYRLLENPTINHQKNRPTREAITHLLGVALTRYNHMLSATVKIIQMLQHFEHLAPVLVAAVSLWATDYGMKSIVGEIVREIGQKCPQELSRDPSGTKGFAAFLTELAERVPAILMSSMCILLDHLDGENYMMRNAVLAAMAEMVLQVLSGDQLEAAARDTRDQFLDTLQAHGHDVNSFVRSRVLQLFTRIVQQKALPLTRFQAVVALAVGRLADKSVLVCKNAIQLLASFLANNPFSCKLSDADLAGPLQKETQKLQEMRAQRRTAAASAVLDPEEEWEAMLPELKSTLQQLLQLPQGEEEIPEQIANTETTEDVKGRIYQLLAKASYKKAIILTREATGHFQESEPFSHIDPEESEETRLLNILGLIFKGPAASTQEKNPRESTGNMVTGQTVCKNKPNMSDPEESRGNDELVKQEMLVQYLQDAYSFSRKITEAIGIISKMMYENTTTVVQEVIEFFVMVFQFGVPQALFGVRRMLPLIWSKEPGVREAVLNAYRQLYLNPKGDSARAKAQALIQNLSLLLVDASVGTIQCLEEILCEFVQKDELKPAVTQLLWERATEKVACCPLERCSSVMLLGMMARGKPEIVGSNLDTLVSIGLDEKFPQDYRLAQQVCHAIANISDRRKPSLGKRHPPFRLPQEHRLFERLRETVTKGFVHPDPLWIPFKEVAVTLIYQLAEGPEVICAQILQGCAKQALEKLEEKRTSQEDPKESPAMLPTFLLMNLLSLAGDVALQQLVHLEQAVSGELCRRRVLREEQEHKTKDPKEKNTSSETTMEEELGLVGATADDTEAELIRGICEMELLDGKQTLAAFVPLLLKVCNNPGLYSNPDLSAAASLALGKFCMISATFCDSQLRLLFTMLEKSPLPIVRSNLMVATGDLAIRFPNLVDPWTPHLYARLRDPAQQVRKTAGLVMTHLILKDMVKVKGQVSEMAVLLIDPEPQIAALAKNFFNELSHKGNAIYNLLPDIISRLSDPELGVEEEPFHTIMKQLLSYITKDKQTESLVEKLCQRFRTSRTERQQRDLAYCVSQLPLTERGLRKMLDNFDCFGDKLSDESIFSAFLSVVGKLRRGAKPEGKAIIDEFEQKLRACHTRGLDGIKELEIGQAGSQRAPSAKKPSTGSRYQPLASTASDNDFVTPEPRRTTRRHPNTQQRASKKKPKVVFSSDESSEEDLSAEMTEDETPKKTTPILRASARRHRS", "UniProt Q9UHQ1": "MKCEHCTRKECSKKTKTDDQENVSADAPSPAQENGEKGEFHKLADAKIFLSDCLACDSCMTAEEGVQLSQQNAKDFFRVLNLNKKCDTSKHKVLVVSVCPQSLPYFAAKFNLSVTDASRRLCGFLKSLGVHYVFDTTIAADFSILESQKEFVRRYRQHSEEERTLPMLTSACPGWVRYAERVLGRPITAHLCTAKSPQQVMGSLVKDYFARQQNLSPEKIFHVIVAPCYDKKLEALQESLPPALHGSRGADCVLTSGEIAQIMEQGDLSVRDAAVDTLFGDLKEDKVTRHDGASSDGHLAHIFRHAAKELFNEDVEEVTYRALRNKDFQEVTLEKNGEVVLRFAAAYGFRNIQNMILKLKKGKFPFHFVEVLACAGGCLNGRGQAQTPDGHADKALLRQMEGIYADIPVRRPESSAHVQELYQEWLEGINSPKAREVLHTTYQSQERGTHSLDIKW", "UniProt Q13126": "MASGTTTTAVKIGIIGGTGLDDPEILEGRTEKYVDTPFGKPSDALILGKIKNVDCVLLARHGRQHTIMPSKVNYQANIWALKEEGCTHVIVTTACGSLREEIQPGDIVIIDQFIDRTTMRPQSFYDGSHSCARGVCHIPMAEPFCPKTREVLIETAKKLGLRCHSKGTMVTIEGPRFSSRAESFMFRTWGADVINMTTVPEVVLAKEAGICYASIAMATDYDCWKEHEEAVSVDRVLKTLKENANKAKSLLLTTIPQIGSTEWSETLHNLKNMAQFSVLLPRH", "UniProt P18440": "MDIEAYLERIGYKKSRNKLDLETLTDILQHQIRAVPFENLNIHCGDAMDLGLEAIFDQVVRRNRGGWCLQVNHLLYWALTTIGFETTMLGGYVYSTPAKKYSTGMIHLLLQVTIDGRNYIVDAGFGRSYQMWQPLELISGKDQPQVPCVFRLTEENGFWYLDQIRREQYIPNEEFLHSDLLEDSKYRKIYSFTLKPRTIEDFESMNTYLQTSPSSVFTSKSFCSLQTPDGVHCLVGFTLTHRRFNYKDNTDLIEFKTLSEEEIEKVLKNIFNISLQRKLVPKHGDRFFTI"}, "source": "the supplement of paper PMC7666118", "note": "This is one part of the list."}
{"compound": "COc1ccc(Cn2ccc3ccc(C(=O)NO)cc32)cc1", "assay": "dose-dependent thermal stabilisation call (2D-TPP, DLPTP, 10% FDR) (binary (1 = stabilised)); higher = stabilised by the compound", "settings": "system: HL-60 intact cells; concentration range 0.04-10 µM"}
{"target": "MYCBP (UniProt Q99417)", "dose-dependent thermal stabilisation call": "inactive: 0"}
{"target": "MTHFD1 (UniProt P11586)", "dose-dependent thermal stabilisation call": "inactive: 0"}
{"target": "NFU1 (UniProt Q9UMS0)", "dose-dependent thermal stabilisation call": "inactive: 0"}
{"target": "MYO19 (UniProt Q96H55)", "dose-dependent thermal stabilisation call": "inactive: 0"}
{"target": "NDUFA5 (UniProt Q16718)", "dose-dependent thermal stabilisation call": "inactive: 0"}
{"target": "NDUFS6 (UniProt O75380)", "dose-dependent thermal stabilisation call": "inactive: 0"}
{"target": "MYSM1 (UniProt Q5VVJ2)", "dose-dependent thermal stabilisation call": "inactive: 0"}
{"target": "NPTN (UniProt Q9Y639)", "dose-dependent thermal stabilisation call": "inactive: 0"}
{"target": "NDST1 (UniProt P52848)", "dose-dependent thermal stabilisation call": "inactive: 0"}
{"target": "NOL7 (UniProt Q9UMY1)", "dose-dependent thermal stabilisation call": "inactive: 0"}
{"target": "NOP16 (UniProt Q9Y3C1)", "dose-dependent thermal stabilisation call": "inactive: 0"}
{"target": "NFYB (UniProt P25208)", "dose-dependent thermal stabilisation call": "inactive: 0"}
{"target": "NCOR2 (UniProt Q9Y618)", "dose-dependent thermal stabilisation call": "inactive: 0"}
{"target": "NPM3 (UniProt O75607)", "dose-dependent thermal stabilisation call": "inactive: 0"}
{"target": "NLN (UniProt Q9BYT8)", "dose-dependent thermal stabilisation call": "active: 1"}
{"target": "NOL10 (UniProt Q9BSC4)", "dose-dependent thermal stabilisation call": "inactive: 0"}
{"target": "NDUFA10 (UniProt O95299)", "dose-dependent thermal stabilisation call": "inactive: 0"}
{"target": "NAT12 (UniProt Q147X3)", "dose-dependent thermal stabilisation call": "inactive: 0"}
{"target": "NPEPL1 (UniProt Q8NDH3)", "dose-dependent thermal stabilisation call": "inactive: 0"}
{"target": "NDUFB3 (UniProt O43676)", "dose-dependent thermal stabilisation call": "inactive: 0"}
{"target": "MYBBP1A (UniProt Q9BQG0)", "dose-dependent thermal stabilisation call": "inactive: 0"}
{"target": "NCAPD2 (UniProt Q15021)", "dose-dependent thermal stabilisation call": "inactive: 0"}
{"target": "NONO (UniProt Q15233)", "dose-dependent thermal stabilisation call": "inactive: 0"}
{"target": "MTDH (UniProt Q86UE4)", "dose-dependent thermal stabilisation call": "inactive: 0"}
{"target": "NIF3L1 (UniProt Q9GZT8)", "dose-dependent thermal stabilisation call": "inactive: 0"}
{"target": "NIT2 (UniProt Q9NQR4)", "dose-dependent thermal stabilisation call": "inactive: 0"}
{"target": "NCBP1 (UniProt Q09161)", "dose-dependent thermal stabilisation call": "inactive: 0"}
{"target": "NLE1 (UniProt Q9NVX2)", "dose-dependent thermal stabilisation call": "inactive: 0"}
{"target": "NAPEPLD (UniProt Q6IQ20)", "dose-dependent thermal stabilisation call": "inactive: 0"}
{"target": "MSL3 (UniProt Q8N5Y2)", "dose-dependent thermal stabilisation call": "inactive: 0"}
{"target": "NEDD8 (UniProt Q15843)", "dose-dependent thermal stabilisation call": "inactive: 0"}
{"target": "NCOA7 (UniProt Q8NI08)", "dose-dependent thermal stabilisation call": "inactive: 0"}
{"target": "NARF (UniProt Q9UHQ1)", "dose-dependent thermal stabilisation call": "inactive: 0"}
{"target": "NAE1 (UniProt Q13564)", "dose-dependent thermal stabilisation call": "inactive: 0"}
{"target": "MTAP (UniProt Q13126)", "dose-dependent thermal stabilisation call": "inactive: 0"}
{"target": "NAT1 (UniProt P18440)", "dose-dependent thermal stabilisation call": "inactive: 0"}
{"target": "NENF (UniProt Q9UMX5)", "dose-dependent thermal stabilisation call": "inactive: 0"}
